These are yes or no findings as the source states them, for the method shown. Binding seen in cells or lysates may run through a third protein.
Target: RUNX2 (endogenous, mouse calvarial osteoblasts) (mouse (endogenous in COBs)) (UniProt Q08775)
Assay: co-IP; endogenous proteins in lysate of wild-type mouse COBs (50 mM Tris-HCl pH 7.4, 150 mM NaCl, 1% Triton X-100, 1 mM EDTA, 1 mM EGTA); IgG control or anti-RUNX2 and protein G-conjugated agarose; immunoblot

Chains of the proteins cited; added tags and fusions are not shown.
UniProt Q08775: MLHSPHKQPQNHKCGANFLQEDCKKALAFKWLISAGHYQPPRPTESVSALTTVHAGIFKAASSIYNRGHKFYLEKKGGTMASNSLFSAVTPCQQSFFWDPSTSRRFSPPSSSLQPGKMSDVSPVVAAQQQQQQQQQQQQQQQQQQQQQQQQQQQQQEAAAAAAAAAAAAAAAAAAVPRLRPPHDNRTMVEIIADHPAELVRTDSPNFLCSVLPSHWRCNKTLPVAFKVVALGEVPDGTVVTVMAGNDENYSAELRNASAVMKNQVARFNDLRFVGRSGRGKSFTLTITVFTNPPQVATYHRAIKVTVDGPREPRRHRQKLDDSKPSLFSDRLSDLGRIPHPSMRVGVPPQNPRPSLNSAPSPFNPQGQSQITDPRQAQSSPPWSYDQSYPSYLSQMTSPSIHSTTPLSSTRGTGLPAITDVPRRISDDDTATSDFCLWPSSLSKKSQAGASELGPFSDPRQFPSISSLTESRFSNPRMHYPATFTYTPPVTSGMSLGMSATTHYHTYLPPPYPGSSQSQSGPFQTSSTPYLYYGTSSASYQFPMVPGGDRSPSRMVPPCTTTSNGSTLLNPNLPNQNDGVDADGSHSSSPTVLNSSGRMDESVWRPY
UniProt B1AY13: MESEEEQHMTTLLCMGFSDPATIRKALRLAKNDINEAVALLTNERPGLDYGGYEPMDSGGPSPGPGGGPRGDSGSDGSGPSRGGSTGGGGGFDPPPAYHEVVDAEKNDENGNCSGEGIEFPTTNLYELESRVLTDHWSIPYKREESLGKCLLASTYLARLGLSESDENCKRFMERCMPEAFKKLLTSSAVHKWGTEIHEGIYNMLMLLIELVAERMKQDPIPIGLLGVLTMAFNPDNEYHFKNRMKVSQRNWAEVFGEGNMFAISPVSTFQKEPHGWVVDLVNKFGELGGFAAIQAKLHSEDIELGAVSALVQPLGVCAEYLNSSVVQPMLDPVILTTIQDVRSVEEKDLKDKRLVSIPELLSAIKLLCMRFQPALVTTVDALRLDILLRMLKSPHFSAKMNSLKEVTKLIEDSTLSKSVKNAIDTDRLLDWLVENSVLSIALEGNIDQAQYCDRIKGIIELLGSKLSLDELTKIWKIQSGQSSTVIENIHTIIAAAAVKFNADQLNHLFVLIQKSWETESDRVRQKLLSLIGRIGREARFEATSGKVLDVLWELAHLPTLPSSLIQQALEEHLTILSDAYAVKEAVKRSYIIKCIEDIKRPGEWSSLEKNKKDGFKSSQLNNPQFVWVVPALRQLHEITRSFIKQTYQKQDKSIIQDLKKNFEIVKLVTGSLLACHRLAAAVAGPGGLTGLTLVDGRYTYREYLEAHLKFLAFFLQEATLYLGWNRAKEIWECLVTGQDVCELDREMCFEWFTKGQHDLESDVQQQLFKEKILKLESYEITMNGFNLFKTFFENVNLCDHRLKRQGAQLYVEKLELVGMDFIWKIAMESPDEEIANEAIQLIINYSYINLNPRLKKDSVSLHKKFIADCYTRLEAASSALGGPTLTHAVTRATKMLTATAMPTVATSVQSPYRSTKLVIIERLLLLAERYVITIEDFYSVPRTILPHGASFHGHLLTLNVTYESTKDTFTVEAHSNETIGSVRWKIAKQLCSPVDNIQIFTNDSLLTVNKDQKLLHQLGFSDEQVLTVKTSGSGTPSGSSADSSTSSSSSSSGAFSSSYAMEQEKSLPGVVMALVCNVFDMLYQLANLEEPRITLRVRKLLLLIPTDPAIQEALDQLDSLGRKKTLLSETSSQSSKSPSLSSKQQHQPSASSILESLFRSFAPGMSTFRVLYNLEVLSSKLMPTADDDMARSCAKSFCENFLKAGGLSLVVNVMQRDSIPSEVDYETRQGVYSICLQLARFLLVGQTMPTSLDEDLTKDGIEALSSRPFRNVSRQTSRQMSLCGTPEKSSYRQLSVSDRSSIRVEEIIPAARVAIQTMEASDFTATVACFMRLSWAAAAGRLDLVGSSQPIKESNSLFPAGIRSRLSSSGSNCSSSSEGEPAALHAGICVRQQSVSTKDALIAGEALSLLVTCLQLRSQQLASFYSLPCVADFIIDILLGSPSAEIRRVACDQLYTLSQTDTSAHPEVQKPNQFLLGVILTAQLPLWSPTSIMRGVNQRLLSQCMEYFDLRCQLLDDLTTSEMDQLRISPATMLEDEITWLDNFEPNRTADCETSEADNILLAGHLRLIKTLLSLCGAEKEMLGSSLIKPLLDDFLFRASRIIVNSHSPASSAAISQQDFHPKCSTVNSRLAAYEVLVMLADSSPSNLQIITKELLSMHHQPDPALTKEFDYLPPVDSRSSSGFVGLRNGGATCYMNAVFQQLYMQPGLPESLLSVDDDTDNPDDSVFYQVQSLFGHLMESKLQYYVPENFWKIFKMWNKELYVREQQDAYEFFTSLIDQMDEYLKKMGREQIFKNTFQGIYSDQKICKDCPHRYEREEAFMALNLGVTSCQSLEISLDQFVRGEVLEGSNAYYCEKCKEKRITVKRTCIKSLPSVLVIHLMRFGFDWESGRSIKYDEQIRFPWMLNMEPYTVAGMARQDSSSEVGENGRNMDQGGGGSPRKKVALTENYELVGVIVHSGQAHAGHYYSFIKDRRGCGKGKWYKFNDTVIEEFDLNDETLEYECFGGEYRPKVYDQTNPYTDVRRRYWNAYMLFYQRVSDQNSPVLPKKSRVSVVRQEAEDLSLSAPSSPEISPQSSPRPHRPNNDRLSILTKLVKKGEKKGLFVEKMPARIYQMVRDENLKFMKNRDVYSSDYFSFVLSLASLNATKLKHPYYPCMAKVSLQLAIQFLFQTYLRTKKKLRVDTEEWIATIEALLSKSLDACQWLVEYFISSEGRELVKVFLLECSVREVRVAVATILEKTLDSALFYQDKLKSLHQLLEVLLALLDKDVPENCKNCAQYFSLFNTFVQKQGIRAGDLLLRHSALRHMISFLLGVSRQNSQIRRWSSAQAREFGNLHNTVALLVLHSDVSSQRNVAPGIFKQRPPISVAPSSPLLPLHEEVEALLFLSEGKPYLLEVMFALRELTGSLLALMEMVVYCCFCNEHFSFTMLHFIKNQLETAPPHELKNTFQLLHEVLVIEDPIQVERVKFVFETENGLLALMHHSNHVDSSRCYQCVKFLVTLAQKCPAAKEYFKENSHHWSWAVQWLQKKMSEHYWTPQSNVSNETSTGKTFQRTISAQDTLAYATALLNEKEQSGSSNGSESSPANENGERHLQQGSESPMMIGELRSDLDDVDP

binding: no binding
Substance: USP24 (endogenous, mouse calvarial osteoblasts) (from UniProt B1AY13 1-2617) (enzyme)

Source: article PMC7210266
